Some of the results follow.
Target: OsWRKY34 (Oryza sativa, UniProt Q0JBA9 1-250)
Assay: protein-binding microarray (RPBM); PBS, 2% BSA, 51.3 ng/ul salmon testes DNA, 50 uM zinc acetate, 200 nM TF, 25 C, 1 h; high values mean tight binding
Conditions: protein: recombinant; tags: N-terminal polyhistidine and DsRed monomer fusion (pET32a); label: CyDye5-dUTP incorporated in the synthesized complementary strand; 3' TTTTT single-stranded linker to array surface; dsDNA, one strand shown
Procedure, shortened: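 Binding signal here means per-feature fluorescence intensity in arbitrary units. The values were read on an Axon 4000B scanner after a custom Agilent array, double-stranded by primer extension with Cy5-dUTP, was incubated with 200 nM protein at 25 °C for 1 h in PBS with 2% BSA, salmon testes DNA and 50 µM zinc acetate, then washed. The proteins were transcription factors with an N-terminal polyhistidine tag and DsRed, expressed in E. coli BL21-CodonPlus and purified on Ni–NTA.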

Amino acid sequences for entries named in this document (tags omitted).
UniProt Q0JBA9, entry or part of it: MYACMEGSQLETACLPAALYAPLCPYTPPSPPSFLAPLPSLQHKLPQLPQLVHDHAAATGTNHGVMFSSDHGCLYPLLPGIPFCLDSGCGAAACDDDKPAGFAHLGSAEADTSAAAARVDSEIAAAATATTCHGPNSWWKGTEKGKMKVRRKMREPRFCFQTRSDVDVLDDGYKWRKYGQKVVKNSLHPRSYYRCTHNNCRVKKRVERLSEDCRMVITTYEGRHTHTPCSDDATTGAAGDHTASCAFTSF

**Q.** For “ACGTTGCACATCTTTGGCGTGTCTTGCCATCTCTTCCAGTCGGAGTCACCTAGTGCAG”, which binding signal is on record?
**A.** Its binding signal is 9130 fluorescence intensity (a.u.).

**Q.** “TGAAACTCTACACAAGAGCTCTTCGCATCATTTTCTTTTTCGGAGTCACCTAGTGCAG” was tested. Which binding signal did it give?
**A.** Its binding signal is 9320 fluorescence intensity (a.u.).

**Q.** For “GGTCAACATTTTTCGTAGTGGGGATTAGGGATGTCATACACGGAGTCACCTAGTGCAG”, which binding signal is on record?
**A.** Its binding signal is 10600 fluorescence intensity (a.u.).

**Q.** “GGGGTGCATAATCTGGAAGGCCGATTTGGTAAAACAATGGCGGAGTCACCTAGTGCAG” was tested. Which binding signal did it give?
**A.** The binding signal was 8620 fluorescence intensity (a.u.).

**Q.** How did the binding signal turn out when “AAGTCATTTGTTTGTTACGTTATTCTTGCATCTGTTGATCCGGAGTCACCTAGTGCAG” was run?
**A.** The binding signal was 8950 fluorescence intensity (a.u.).

**Q.** “TTTTTTTGTATGTACATCATCATTGCTAAAATCTTTAATACGGAGTCACCTAGTGCAG” was tested. Which binding signal did it give?
**A.** Its binding signal is 8260 fluorescence intensity (a.u.).

**Q.** How did the binding signal turn out when “GGTATACTTGCATACATGCGTTCTTTGTTGTTGCTGACTACGGAGTCACCTAGTGCAG” was run?
**A.** The binding signal was 9560 fluorescence intensity (a.u.).

**Q.** “CCTCCGCCACCGCCGCCCGGCCGCCTCCCCTCCCGGATCCCGGAGTCACCTAGTGCAG” was tested. Which binding signal did it give?
**A.** The binding signal was 8320 fluorescence intensity (a.u.).

**Q.** With “ACCCTTAACCTTATCTTATCTTATTCAGCATGCACATGGTCGGAGTCACCTAGTGCAG” as the sequence, how does the binding signal read?
**A.** Its binding signal is 8460 fluorescence intensity (a.u.).

**Q.** “TCGCTCTTCGCCCGCCGCCGCCATTGTCCCCGCCGTCCCCCGGAGTCACCTAGTGCAG” was tested. Which binding signal did it give?
**A.** The binding signal was 8830 fluorescence intensity (a.u.).

**Q.** How did the binding signal turn out when “ACTGCATAAAAACGCCCCACCTCCGCCGAATCGCCGATCCCGGAGTCACCTAGTGCAG” was run?
**A.** The binding signal was 8130 fluorescence intensity (a.u.).

**Q.** With “ATCTCCACCGTCCGTCTCCATCCTACACCACCCCGTTCTCCGGAGTCACCTAGTGCAG” as the sequence, how does the binding signal read?
**A.** The binding signal was 9670 fluorescence intensity (a.u.).

**Q.** Which binding signal does the source give for “TTGGTTGCATGTTTTTTCACGTAAAATCTTAATTTTTGCACGGAGTCACCTAGTGCAG” here?
**A.** The binding signal was 8150 fluorescence intensity (a.u.).

**Q.** Which binding signal does the source give for “CTTATCCGATTATACCGTTATGTTCGTTGCAATTAAATCTCGGAGTCACCTAGTGCAG” here?
**A.** The binding signal was 12200 fluorescence intensity (a.u.).

**Q.** With “GTGAGCTGCCCGGCTCTCGCCGTTCTTGACCTCTCCGTCACGGAGTCACCTAGTGCAG” as the sequence, how does the binding signal read?
**A.** Its binding signal is 8660 fluorescence intensity (a.u.).

**Q.** Which binding signal does the source give for “ACGCACCAAAACACACGATCCTCTCGGATAAATCACAGCCCGGAGTCACCTAGTGCAG” here?
**A.** Its binding signal is 27500 fluorescence intensity (a.u.).

**Q.** “ATCTACGAGAGATTTGTTTGGTGAATGGTGATTTCTTCCTCGGAGTCACCTAGTGCAG” was tested. Which binding signal did it give?
**A.** Its binding signal is 9300 fluorescence intensity (a.u.).

**Q.** “TTTACGATTTCAAGATTGCCTTCCGTTTCGAGTTCTGCCGCGGAGTCACCTAGTGCAG” was tested. Which binding signal did it give?
**A.** Its binding signal is 8130 fluorescence intensity (a.u.).

**Q.** For “TACTGATCTAGTCATCAATCCATGCATCCATCCATCATTACGGAGTCACCTAGTGCAG”, which binding signal is on record?
**A.** The binding signal was 9430 fluorescence intensity (a.u.).

**Q.** Which binding signal does the source give for “TTTTGTACTGCTCATGTCTAAGTTTTATTTTAATTTTTATCGGAGTCACCTAGTGCAG” here?
**A.** Its binding signal is 9860 fluorescence intensity (a.u.).

**Q.** How did the binding signal turn out when “AGGCGAGAGCTCTTCTCCGTTTCCTCCGTTTTCTCCGTTCCGGAGTCACCTAGTGCAG” was run?
**A.** The binding signal was 8960 fluorescence intensity (a.u.).

**Q.** With “TTTAGATGTCATATTGTTTCACCTATAACCGATTATAAACCGGAGTCACCTAGTGCAG” as the sequence, how does the binding signal read?
**A.** The binding signal was 8700 fluorescence intensity (a.u.).

**Q.** For “GGATTGGCGTCGTGTTCGTGTAGCTCCTCTTCTCCTCATTCGGAGTCACCTAGTGCAG”, which binding signal is on record?
**A.** Its binding signal is 10700 fluorescence intensity (a.u.).

**Q.** How did the binding signal turn out when “TCCATCCCGGGTTCAAATTCGAATCACCCATCCCACCAAACGGAGTCACCTAGTGCAG” was run?
**A.** Its binding signal is 8140 fluorescence intensity (a.u.).

**Q.** How did the binding signal turn out when “GTGTACGCGCATCTGCTTTACTAATGTTTTTTTTTAAAAACGGAGTCACCTAGTGCAG” was run?
**A.** Its binding signal is 8540 fluorescence intensity (a.u.).

**Q.** How did the binding signal turn out when “TTGGGTCAGTAATTTTATTTCACCATTAGTCAAACTGATACGGAGTCACCTAGTGCAG” was run?
**A.** Its binding signal is 9120 fluorescence intensity (a.u.).

**Q.** “TGTCTTTTTTTTTTTGTGTGTGTTTTTTGGCATTGATTTTCGGAGTCACCTAGTGCAG” was tested. Which binding signal did it give?
**A.** The binding signal was 10100 fluorescence intensity (a.u.).

**Q.** How did the binding signal turn out when “CCTGCTTCCTCTCTCTCATCCACCCTACGACTTTGACCGCCGGAGTCACCTAGTGCAG” was run?
**A.** Its binding signal is 9800 fluorescence intensity (a.u.).

**Q.** Which binding signal does the source give for “ACTTCCTGGGTGCCCCGTAGCGTTTTTACCCTATACTCGCCGGAGTCACCTAGTGCAG” here?
**A.** Its binding signal is 10200 fluorescence intensity (a.u.).

**Q.** Which binding signal does the source give for “GGTTGGCACGTTTACATCATATTTATACAGCATGTAAAATCGGAGTCACCTAGTGCAG” here?
**A.** Its binding signal is 8060 fluorescence intensity (a.u.).

**Q.** With “GATGGATATGTTGTGTGTGAAGCTCTGGTTGGCCATTTGACGGAGTCACCTAGTGCAG” as the sequence, how does the binding signal read?
**A.** Its binding signal is 12000 fluorescence intensity (a.u.).

**Q.** “TAGTGGTGGTCTTGATTCCTGACATAGCAGACGCATCTGACGGAGTCACCTAGTGCAG” was tested. Which binding signal did it give?
**A.** The binding signal was 10500 fluorescence intensity (a.u.).

**Q.** With “AAAACTAACCGTCTCTCTTCCCGATCGAACCCTTTCTTACCGGAGTCACCTAGTGCAG” as the sequence, how does the binding signal read?
**A.** The binding signal was 8540 fluorescence intensity (a.u.).

**Q.** Which binding signal does the source give for “CTGTTGCCTACTGCTCTTCTCTCTCCTATTTTAACTTTTTCGGAGTCACCTAGTGCAG” here?
**A.** The binding signal was 9310 fluorescence intensity (a.u.).

**Q.** With “TACAGACTCTTCATTCATTTGTGGATATGATACTCGAGGCCGGAGTCACCTAGTGCAG” as the sequence, how does the binding signal read?
**A.** The binding signal was 8400 fluorescence intensity (a.u.).

**Q.** For “GATTATTCGTATTGGTTTATTGATCATTTTTAGTCTTTCTCGGAGTCACCTAGTGCAG”, which binding signal is on record?
**A.** The binding signal was 10400 fluorescence intensity (a.u.).

**Q.** For “AGTCATAGCTAAAATTCGAATTTCATATAGTTTATTTTTTCGGAGTCACCTAGTGCAG”, which binding signal is on record?
**A.** Its binding signal is 8680 fluorescence intensity (a.u.).

**Q.** With “CGATCGATCGAGCTCCGCTCCGTCCTTCTCAGTCAGCGCCCGGAGTCACCTAGTGCAG” as the sequence, how does the binding signal read?
**A.** The binding signal was 8290 fluorescence intensity (a.u.).

**Q.** Which binding signal does the source give for “TTTGCATGCAACGTCGATCTCTCTATTTGCATTGCCCTCTCGGAGTCACCTAGTGCAG” here?
**A.** The binding signal was 9450 fluorescence intensity (a.u.).

**Q.** How did the binding signal turn out when “TATATGGGCAAGTTAGCGATATTACTTTCATTTCTTTTATCGGAGTCACCTAGTGCAG” was run?
**A.** Its binding signal is 8540 fluorescence intensity (a.u.).

**Q.** For “CTGAGACCACTCATCTCTCGTTTTTTTCTTTCTTCCTTATCGGAGTCACCTAGTGCAG”, which binding signal is on record?
**A.** The binding signal was 9440 fluorescence intensity (a.u.).

**Q.** How did the binding signal turn out when “GGATCAGTTTTCCCAACTATAATTAACTTACTGTATTATTCGGAGTCACCTAGTGCAG” was run?
**A.** The binding signal was 10300 fluorescence intensity (a.u.).

Source: publication PMC7819943, “Rice protein-binding microarrays: a tool to detect cis-acting elements near promoter regions in rice”
